Test: Trial 6: body weight and food consumption
Format: in vivo, Sprague Dawley rats
Details: OVX rats, recorded weekly

Molecule `O=C([O-])[O-].[Ca+2]` [CCC, crystalline calcium carbonate] has a Mean food consumption of 12.9 g/day.

Reference: US10064890B2, “Amorphous calcium carbonate for the treatment of calcium malabsorption and metabolic bone disorders” (AMORPHICAL LTD, priority 2011, dated 2018)
